Experimental data reported in patent publication US9649295B2, “Chemical inhibitors of soluble adenylyl cyclase (sAC)” (Cornell Research Foundation, Inc., priority 2004, dated 2017).
At least one structure is not confirmed: it was looked up by name or label, or the drawing left a doubt. Some entries share one result that the patent states for a list of compounds.

What was measured:
CREB phosphorylation = test: time course of CREB phosphorylation in Huh7 cells; type: cell-based, human; conditions: 44 mM bicarbonate DME, 1 μM PGE2
Method: FIGS. 2A-B show the time course of CREB phosphorylation by sAC and tmAC. Huh7 cells were starved for 1 h for bicarbonate and CO2 and incubated in 44 mM of normal, bicarbonate-containing DME in 5% CO2 for the time indicated (FIG. 2A) or kept in normal media and treated with 1 μM PGE2 for the time indicated (FIG. 2B). Top panels in FIGS. 2A-B show Western blots using anti-phospho-CREB antisera with phosphorylated CREB (P-CREB) protein indicated; the bottom panels show Western blot using CREB-specific antisera with total CREB (CREB) protein indicated. Shown below the Western blots in FIGS. 2A-B are graphical representations of the intensities of phospho-CREB relative to CREB normalized to the 0 min time point (first lane).
All cell lines were grown in DME (44 mM sodium bicarbonate) supplemented with 10% FBS. […]
For whole cell and isolated nuclei CREB phosphorylation assays, equal cell or nuclear equivalents were separated under reducing conditions using a 10% SDS-PAGE, transferred to a PVDF membrane, and probed for CREB (rabbit polyclonal antiserum; Chemicon, Temecula, Calif.) and phosphorylated CREB (rabbit polyclonal antiserum; Upstate Biotechnology, Temecula, Calif.). […] Image analysis software (model Fluorchem 8800; Alpha Innotech, San Leandro, Calif.) was used to quantitate Western results. […]

[1] = tested on: CREB phosphorylation in isolated nuclei; test: CREB phosphorylation in isolated HeLa nuclei (P2), Western analysis; type: biochemical; conditions: 10 μM forskolin
Method: The resuspended pellet and 60% OptiPrep iodixanol were mixed (30% OptiPrep final) and centrifuged at 10,000 g for 20 min. The supernatant was removed and the nuclei-enriched pellet (P2) was resuspended in TM-2 buffer without detergent.
Reactions were stopped by the addition of 20 μl of SDS sample buffer (CREB phosphorylation) or by being placed into a 100° C. heat block for 3 min (adenylyl cyclase).
For whole cell and isolated nuclei CREB phosphorylation assays, equal cell or nuclear equivalents were separated under reducing conditions using a 10% SDS-PAGE, transferred to a PVDF membrane, and probed for CREB (rabbit polyclonal antiserum; Chemicon, Temecula, Calif.) and phosphorylated CREB (rabbit polyclonal antiserum; Upstate Biotechnology, Temecula, Calif.). HRP-conjugated secondary antibodies were used, and bands were visualized using ECL. Image analysis software (model Fluorchem 8800; Alpha Innotech, San Leandro, Calif.) was used to quantitate Western results. Intensities of phospho-CREB bands were normalized to total CREB.

[2] = tested on: CREB phosphorylation in isolated nuclei; test: phospho-CREB immunocytochemistry of isolated nuclei; type: biochemical; conditions: 10 min; 40 mM sodium bicarbonate, 1 mM 8-Br cAMP, 10 μM forskolin
Method: Cell Signaling Technologies) overnight at 4° C. Staining was visualized by incubation with goat anti-rabbit Alexa Fluor 488 (Molecular Probes) for 1 h at room temperature, treated with DAPI for 5 min, and washed and mounted with gelvatol/DABCO (Sigma-Aldrich). Fluorescent images were recorded by a digital camera (Hamamatsu, Bridgewater, N.J.) connected to an inverted epifluorescent microscope (Nikon, Melville, N.Y.). Images were taken at the same exposure time and gain, and all photographic manipulations were performed equally. Phospho-CREB-positive nuclei were quantified in multiple fields from each stained slide by a blinded experimenter. […] Nuclei were also treated with DAPI to differentiate intact nuclei from membrane ghosts. DAPI-positive nuclei were scored for phosho-CREB immunofluorescence. Nuclei with detectable staining (FIG. 6A, NaHCO3) were considered positive for CREB phosphorylation, whereas nuclei with no detectable staining (FIG. 6A, Basal) were counted as negative. Multiple microscopic fields were photographed for each condition, and data was combined from three to five separate experiments.

SMILES | time to detectable increase in phospho-CREB (CREB phosphorylation) | stimulation of CREB phosphorylation in isolated nuclei [1] | percentage of phospho-CREB-positive nuclei relative to basal [2]
CCCCC[C@H](O)/C=C/[C@H]1[C@H](O)CC(=O)[C@@H]1C/C=C\CCCC(=O)O [PGE2] | ≥ 5 min | – | –
C=C[C@@]1(C)CC(=O)[C@]2(O)[C@@]3(C)[C@@H](O)CCC(C)(C)[C@@H]3[C@H](O)[C@H](OC(C)=O)[C@@]2(C)O1 [forskolin] | ≥ 5 min | no significant stimulation | unaffected
